Test results from PubChem BioAssay AID662 (National Center for Advancing Translational Sciences (NCATS), 2007).
Some of the results follow. Shown are side measurements of this screen, not its main read-out; they come without a call. Most of these compounds were active or inconclusive in the main read-out, so they are no random draw. Potencies come from curve fits of mixed quality, noted in brackets.

Test: Cell signaling CRE-BLA (Fsk stim)
Details: CHO CRE-bla reporter (cAMP response element driving beta-lactamase), forskolin EC10, beta-lactamase ratio; measured here: 460 nm blue channel
How it was run: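 Forskolin analogue NKH 477 at EC10 stimulated CRE-driven beta-lactamase in CHO cells alongside compound dilution series. Beta-lactamase was measured with CCF4, excitation 405 nm, emission ratio 460/530 nm.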

SMILES	AC50
Cc1nn(Cc2ccc(F)cc2)c(C)c1NC(=O)c1noc2c1CCCCC2	25.1 µM [falling, single point]
CCS(=O)(=O)N1CCC(C(=O)NCc2cccnc2)CC1	0.398 µM [rising, full curve]
CC1CCCN(C(=O)CSCC(=O)N=c2sc3ccccc3n2C)C1 (centres undefined)	1.26 µM [falling, partial curve]
CCCOc1ccccc1C1CC(=O)Nc2cc3c(cc21)OCO3 (centres undefined)	10 µM [rising, partial curve]
COCCNc1nc(-c2c(C)noc2C)nc2ccccc12	12.6 µM [rising, partial curve]
O=c1c2ccccc2nc2c3ccccc3c3nncn3n12	10 µM [rising, partial curve]
CN(C)C(=O)c1ccc(-c2nc(Nc3ccc(F)cc3)c3ccccc3n2)cc1	3.16 µM [rising, full curve]
CN(C)P(=NC(=O)COc1ccc(Cl)cc1Cl)(N(C)C)N(C)C	3.98 µM [falling, single point]
COC(=O)C(C#N)c1nc2ccccc2nc1N1CCCC1 (centres undefined)	12.6 µM [rising, partial curve]
Cc1ccc(-c2csc3nnc(SCC(=O)Nc4cccc(C)n4)n23)cc1	10 µM [rising, partial curve, poor fit]
O=c1c2ccccc2oc2ncccc12	1 µM [rising, single point]
CC(C)Cn1c(N)c(S(=O)(=O)c2cccs2)c2nc3ccccc3nc21	12.6 µM [rising, partial curve]
COc1ccc(OC)c(-n2cnnn2)c1	1.58 µM [rising, partial curve]
O=C(COC(=O)C1CCCN1C(=O)c1cccs1)Nc1ccc2c(c1)OCO2 (centres undefined)	5.01 µM [falling, partial curve]
CCC1C(=O)N=C(SCC(=O)Nc2ccc(C(=O)OC)cc2)NC1=O (centres undefined)	0.0501 µM [falling, full curve, poor fit]
Cn1nnnc1Sc1nc(-c2cccnc2)nc2ccccc12	3.98 µM [falling, partial curve]
CC(=O)NCc1ccc(-c2csc(N)n2)s1	3.98 µM [falling, partial curve]
c1nc(NCCN2CCOCC2)c2c3c(sc2n1)CCCCC3	12.6 µM [rising, single point]
c1ccc2c(c1)OCC(c1nn3cnnc3s1)O2 (centres undefined)	5.01 µM [rising, single point]
COC(=O)C1=C(N)Oc2cc(C)n(Cc3cccnc3)c(=O)c2C1c1ccc(OC)c(OC)c1 (centres undefined)	25.1 µM [rising, single point]
COc1cccc(-c2nc(NCc3cccnc3)c3ccccc3n2)c1	10 µM [rising, partial curve]
Cc1cc(C)n2cc(CSc3nnnn3-c3ccccc3)nc2n1	25.1 µM [rising, single point]
COc1ccc(S(=O)(=O)Nc2ccc(Cl)cn2)c(C)c1C	0.0794 µM [falling, partial curve, poor fit]

SMILES	AC50
Cc1cc(C)c(C)c(S(=O)(=O)NCc2ccco2)c1C	0.0501 µM [falling, full curve]
CCOC(=O)N1CCN(C(=O)c2ccc(-n3c(=S)[nH]c4ccccc4c3=O)cc2)CC1	0.631 µM [falling, partial curve]
COc1ccccc1-c1cc(C(F)(F)F)nc(S(=O)(=O)CCCC(=O)N2CCOCC2)n1	10 µM [falling, partial curve]
CN(C)c1ncc2nc(-c3ccccc3)c(=O)n(-c3ccccc3)c2n1	12.6 µM [rising, partial curve]
COc1cc(Br)cc2cc(C(=O)N3CCCCC3C)c(=O)oc12 (centres undefined)	0.00316 µM [falling, full curve, poor fit]
COc1ccc(-n2c(=O)c(-c3cccc(Cl)c3)nc3cncnc32)cc1	5.01 µM [rising, partial curve]
CC(CCl)OC(C)CCl (centres undefined)	1 µM [falling, full curve, poor fit]
COc1ccccc1-c1nn2c(C3COc4ccccc4O3)nnc2s1 (centres undefined)	25.1 µM [rising, single point]
CCOC(=O)c1[nH]c(C)c(C(=O)N2CCN(C(=O)c3ccco3)CC2)c1C	10 µM [rising, partial curve, poor fit]
COc1cccc(-c2cn3nc(C)c(C)nc3n2)c1	15.8 µM [rising, partial curve]
COc1cccc(-c2cc(C(=O)Nc3cccc(O)c3)no2)c1	0.0316 µM [rising, full curve]
COc1cc(OC)cc(-c2nc(-c3ccccc3)no2)c1	5.01 µM [falling, single point]
CN1CCN(c2nc3c(c(=O)n(C)c(=O)n3C)n2CCSc2nc3ccccc3s2)CC1	6.31 µM [rising, partial curve]
COc1cc2c(cc1OC)C(C)N(C(=O)C1COc3ccccc3O1)CC2 (centres undefined)	15.8 µM [rising, partial curve]
CCn1cc(C(=O)NCc2ccc3c(c2)OCO3)c2cc(OC)c(OC)cc2c1=O	3.98 µM [rising, partial curve]
CCOC(=O)N1CCN(C(=O)c2ccc3c(=O)n(CCc4ccccc4)c(=S)[nH]c3c2)CC1	12.6 µM [rising, single point]
O=C(C1CCCN(c2ncccn2)C1)N1CCc2ccccc21 (centres undefined)	2 µM [rising, partial curve]
CCN(CC)C(=O)c1csc(Nc2ccc(C)cc2)n1	5.01 µM [falling, single point]
COc1cc(NC(=O)COc2ccc(F)cc2)nc(OC)n1	0.0501 µM [rising, partial curve, poor fit]
COc1ncc2nc(-c3ccc(F)cc3)c(=O)n(CCC#N)c2n1	10 µM [rising, partial curve]
Cc1nc2nc(SCC(=O)C(C)(C)C)[nH]c2cc1Br	1 µM [rising, partial curve]
CCOc1ccc(CCNC(=O)c2oc3c(c2C)-c2[nH]ncc2CC3)cc1OCC	2 µM [rising, full curve]
COc1ccccc1N1CCN(c2ccc(-c3ccccc3)nn2)CC1	5.01 µM [rising, full curve]

SMILES	AC50
O=C(CN1c2cccc3cccc(c23)S1(=O)=O)NCc1ccc2c(c1)OCO2	0.2 µM [rising, partial curve]
CC/C(=C(\c1ccccc1)c1ccc(OCCN(C)C)cc1)c1ccc(O)cc1	15.8 µM [falling, partial curve, poor fit]
CCOC(=O)C(NC(=O)c1ccc(OC)cc1)(OCC1(CC)COC1)C(F)(F)F (centres undefined)	10 µM [falling, partial curve, poor fit]
CCC(=O)N/C(=N/c1nc(C)cc(C)n1)Nc1cccc(OC)c1	12.6 µM [rising, single point]
CN1CCN(S(=O)(=O)c2ccc(NC(=O)c3ccc(Br)s3)cc2)CC1	10 µM [rising, single point]
CCN(CC(=O)Nc1ccccc1C(=O)OC)S(=O)(=O)c1ccccc1	10 µM [rising, single point]
O=c1oc(-c2cccc(S(=O)(=O)N3CCOCC3)c2)nc2ccccc12	0.1 µM [falling, full curve]
COC(=O)c1ccccc1NC(=O)N1c2ccccc2CC1C (centres undefined)	12.6 µM [rising, partial curve]
COc1cc(CNC(=O)CCCC/C=C\C(C)C)ccc1O	31.6 µM [falling, single point]
CNCCC=C1c2ccccc2CCc2ccccc21	12.6 µM [falling, single point]
CCNc1nc(N)nc(Oc2ccc(OCCOc3ccc(Cl)cc3Cl)nn2)n1	6.31 µM [rising, partial curve]
O=C(CSC1=Nc2ccccc2C2=NC(CC(=O)NCc3ccco3)C(=O)N12)NCC1CCCO1 (centres undefined)	0.0794 µM [falling, full curve, poor fit]
CSC1=C(C#N)C(c2cccc(Br)c2)CC(=O)N1 (centres undefined)	3.98 µM [falling, partial curve]
O=C(Nc1cccc2nsnc12)c1cccs1	10 µM [rising, partial curve]
O=C(O)CC(C(=O)O)c1cn(Cc2ccccc2)c2ccccc12 (centres undefined)	3.98 µM [falling, partial curve]
Cc1onc(-c2ccccc2Cl)c1C(=O)Nc1cccc2nsnc12	20 µM [rising, partial curve]
Cc1ccccc1-n1nc(C)c2cc(C(=O)N3CCN(S(=O)(=O)c4ccccc4)CC3)sc21	10 µM [falling, partial curve]
COc1cc(-c2nnc3sc(-c4ccncc4)nn23)cc(OC)c1OC	2.51 µM [rising, full curve]
O=C(CC1Nc2ccccc2NC1=O)NCC1COc2ccccc2O1 (centres undefined)	3.16 µM [falling, single point]
Cc1csc(NC(=O)CCCSc2nc3ccccc3s2)n1	3.98 µM [falling, partial curve]
Cc1ccccc1CS(=O)(=O)c1nnc([C@H](CC(C)C)NC(=O)OC(C)(C)C)o1	7.94 µM [falling, partial curve]
CC(C)OC(=O)CSc1nc(N)c(C#N)c(-c2cccs2)c1C#N	7.94 µM [rising, partial curve]
N=c1c(S(=O)(=O)c2ccccc2)cc2c(=O)n3ccccc3nc2n1CCN1CCOCC1	10 µM [rising, partial curve]

Quoted at random: 3 records from the list
SMILES	AC50
CCN(CC(=O)Nc1ccccc1C(=O)OC)S(=O)(=O)c1ccccc1	10 µM [rising, single point]
CSC1=C(C#N)C(c2cccc(Br)c2)CC(=O)N1 (centres undefined)	3.98 µM [falling, partial curve]
O=C(C1CCCN(c2ncccn2)C1)N1CCc2ccccc21 (centres undefined)	2 µM [rising, partial curve]
